These are yes or no findings as the source states them, for the method shown. Binding seen in cells or lysates may run through a third protein. Some entries that bind do so weakly or less than the wild type. Sequences can lack the tags named with a protein.

Data on one molecule can be found in article PMC3544807.

The target in the assay is T1, SH2 domain of Vav1 fused to glutathione-S-transferase (UniProt P15498).
T1 sequence: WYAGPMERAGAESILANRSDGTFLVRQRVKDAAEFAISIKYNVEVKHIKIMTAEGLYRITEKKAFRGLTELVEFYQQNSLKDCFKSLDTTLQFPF
As to the kind of experiment: pull-down; lysates of AU565Vav1 cells incubated with bacterial GST-Vav1SH2 (or GST-GFP), then immobilized on glutathione-Sepharose beads; bound proteins immunoblotted with anti-Cbl-c or anti-pTyr; only the target purified. In general terms: A western blot detects proteins with antibodies after separation by electrophoresis.

B1: Cbl-c ubiquitin ligase (protein, UniProt Q9ULV8 1-474)
chain: MALAVAPWGRQWEEARALGRAVRMLQRLEEQCVDPRLSVSPPSLRDLLPRTAQLLREVAHSRRAAGGGGPGGPGGSGDFLLIYLANLEAKSRQVAALLPPRGRRSANDELFRAGSRLRRQLAKLAIIFSHMHAELHALFPGGKYCGHMYQLTKAPAHTFWRESCGARCVLPWAEFESLLGTCHPVEPGCTALALRTTIDLTCSGHVSIFEFDVFTRLFQPWPTLLKNWQLLAVNHPGYMAFLTYDEVQERLQACRDKPGSYIFRPSCTRLGQWAIGYVSSDGSILQTIPANKPLSQVLLEGQKDGFYLYPDGKTHNPDLTELGQAEPQQRIHVSEEQLQLYWAMDSTFELCKICAESNKDVKIEPCGHLLCSCCLAAWQHSDSQTCPFCRCEIKGWEAVSIYQFHGQATAEDSGNSSDQEGRELELGQVPLSAPPLPPRPDLPPRKPRNAQPKVRLLKGNSPPAALGPQDPAPA
In the case of B1, the binding result was “binds”.
